Results deposited as PubChem BioAssay AID504791 (Drosophila RNAi Screening Center, 2011)
Screen: 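Genes of the fly required for silencing by miRNA, siRNA or endo-siRNA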 (primary screen). Cell system: Drosophila S2-derived reporter cells. Reagents: long dsRNA against Drosophila genes, about 150-250 ng dsRNA per well (siRNA assay); about 80-120 ng (miRNA assay). Duration: about 5 days (siRNA assay); about 4 days (miRNA assay). Treatment: copper sulfate induction of reporters: 25 µM (siRNA assay); 200 mM stated (miRNA assay), 1-2 days before reading. Measurement: 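Per-well ratio of Renilla over firefly light, expressed relative to that plate's average ratio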. Units: stable assay Renilla, run 1 in luminescence; stable assay firefly, run 1 in luminescence. Call rule: 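a well was a first-pass pick when its plate-scaled ratio rose above 1.5 (siRNA assay) or 1.6 (miRNA assay), or dropped below 0.6; a gene counted only if two separate dsRNAs agreed on retest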.
In all, the deposit lists about 23,000 reagents; this is an unselected part of those that have a named target and a result. In the full data, 199 (0.86%) are marked active. 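Plate-scaled ratios behind the calls are not deposited; printed light signals are raw; many rows marked increased or decreased are still called inactive.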 Unmarked entries are inactive. The record does not give: the direction of the score.

Against Gem3 [DRSC11144] the deposit lists stable assay Renilla, run 1 = 6075; stable assay firefly, run 1 = 5.00e5.
For NAT1 [DRSC06854], the entry reads stable siRNA reporter change reporter ratio raised past the hit cutoff (active); stable assay Renilla, run 1 = 7340; stable assay firefly, run 1 = 2.21e5.
Depletion of CG14434 [DRSC17927] came out at: stable assay Renilla, run 1 = 5767; stable assay firefly, run 1 = 3.51e5.
After knock-down of RpL17 [DRSC18293], the record shows stable assay Renilla, run 1 = 8283; stable assay firefly, run 1 = 3.34e5.
Depletion of CG8726 [DRSC07250] gave: stable assay Renilla, run 1 = 7710; stable assay firefly, run 1 = 3.60e5.
After knock-down of CG32669 [DRSC18864], the record shows stable assay Renilla, run 1 = 5492; stable assay firefly, run 1 = 3.23e5.
Silencing of CG7550 [DRSC10875] resulted in: stable assay Renilla, run 1 = 6167; stable assay firefly, run 1 = 4.14e5.
With knock-down of Cyt-b5 [DRSC07392], the screen gave stable assay Renilla, run 1 = 7875; stable assay firefly, run 1 = 4.45e5.

As entered above:
For “stable assay firefly, run 1”, CG14434 [DRSC17927] reads 3.51e5
For “stable assay firefly, run 1”, NAT1 [DRSC06854] reads 2.21e5 (active)
CG7550 [DRSC10875], stable assay firefly, run 1 = 4.14e5

More entries follow.
Silencing of RhoGAP102A [DRSC17110] came out at: stable assay Renilla, run 1 = 7762; stable assay firefly, run 1 = 3.35e5.
With knock-down of RhoGAP102A [DRSC17145], the screen gave stable assay Renilla, run 1 = 7741; stable assay firefly, run 1 = 5.20e5.
CG31125 [DRSC13684] gave stable assay Renilla, run 1 = 8327; stable assay firefly, run 1 = 5.99e5.
Silencing of Edg78E [DRSC11863] came out at: stable assay Renilla, run 1 = 6886; stable assay firefly, run 1 = 3.96e5.
Jhbp2 [DRSC12292] showed stable assay Renilla, run 1 = 6490; stable assay firefly, run 1 = 4.96e5.
With knock-down of CG3301 [DRSC15471], the screen gave stable assay Renilla, run 1 = 8633; stable assay firefly, run 1 = 2.92e5.
CG31823 [DRSC01887] showed stable assay Renilla, run 1 = 7415; stable assay firefly, run 1 = 3.65e5.
For DnaJ-1 [DRSC11145] the deposit lists stable assay Renilla, run 1 = 10194; stable assay firefly, run 1 = 5.55e5.
For CG15172 [DRSC02473] the deposit lists stable assay Renilla, run 1 = 7542; stable assay firefly, run 1 = 5.23e5.
With knock-down of emb [DRSC03528], the record shows stable assay Renilla, run 1 = 10199; stable assay firefly, run 1 = 6.14e5.
Tig [DRSC03456] showed stable assay Renilla, run 1 = 8862; stable assay firefly, run 1 = 5.51e5.
